PubChem BioAssay AID1259424 – University of Nebraska Medical Center | 2018

- Aim: 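Find knockdowns that reproduce the expression shifts seen after KSR1 loss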 (primary screen)
- Cells: human HCT116 colon cancer cells
- Knock-down reagent: siRNA pool against human genes, 50 nM
- Detection: 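Log2 levels of six mRNAs (branched-DNA multiplex), adjusted by two reference genes and the non-targeting median, then scored against the average KSR1 knockdown pattern as Pearson r and euclidean distance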
- Reading the numbers: mean correlation with KSR1 profile and KSR1 correlation: higher = expression change more like KSR1 knockdown; mean distance from KSR1 profile: higher = expression change less like KSR1 knockdown
This is an unselected part of about 14,000 reagents. 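Higher correlation or smaller distance means closer resemblance to KSR1 loss; control wells, including KSR1 knockdowns, recur on many plates.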 Not given: the time to read-out.

| target | mean correlation with KSR1 profile | mean distance from KSR1 profile | KSR1 correlation, replicate 1 | KSR1 correlation, replicate 2 | KSR1 correlation, replicate 3 |
| --- | --- | --- | --- | --- | --- |
| CDADC1 (cytidine and dCMP deaminase domain containing 1) | 0.0456 | 2.7 | 0.0662 | -0.155 | -0.0657 |
| CYP7B1 (cytochrome P450 family 7 subfamily B member 1) | 0.664 | 1.09 | 0.128 | 0.484 | 0.861 |
| TNRC6A (trinucleotide repeat containing adaptor 6A) | -0.261 | 2.12 | -0.43 | -0.118 | -0.485 |
| HOOK1 (hook microtubule tethering protein 1) | -0.0194 | 1.8 | -0.563 | 0.245 | 0.365 |
| PZP (PZP alpha-2-macroglobulin like) | -0.482 | 1.48 | -0.405 | -0.679 | 0.242 |
| NUDT2 (nudix hydrolase 2) | 0.853 | 3.3 | 0.737 | 0.804 | 0.788 |
| GPR88 (G protein-coupled receptor 88) | 0.442 | 2.17 | 0.5 | 0.407 | 0.349 |
| HCK (HCK proto-oncogene, Src family tyrosine kinase) | 0.174 | 2.34 | 0.551 | 0.112 | -0.315 |
| SH3BP1 (SH3 domain binding protein 1) | -0.294 | 3.1 | -0.0127 | -0.565 | -0.421 |
| CCNT1 (cyclin T1) | -0.0468 | 1.9 | -0.125 | -0.117 | -0.12 |
| FKBP4 (FKBP prolyl isomerase 4) | 0.15 | 2.51 | 0.157 | 0.132 | -0.0381 |
| ADA (adenosine deaminase) | -0.428 | 3.05 | -0.427 | -0.528 | -0.327 |
| NR1D1 (nuclear receptor subfamily 1 group D member 1) | 0.701 | 0.952 | 0.78 | 0.691 | 0.284 |
| SEC61A2 (SEC61 translocon subunit alpha 2) | 0.608 | 1.64 | 0.586 | 0.439 | 0.555 |
| ZNF627 (zinc finger protein 627) | -0.0982 | 2.82 | 0.0513 | -0.0124 | -0.0413 |
| NOS1AP (nitric oxide synthase 1 adaptor protein) | -0.233 | 2.8 | -0.186 | -0.0454 | -0.491 |
| LAMP1 (lysosome associated membrane protein 1) | -0.725 | 2.92 | -0.814 | -0.756 | -0.593 |
| TLCD3B (TLC domain containing 3B) | 0.694 | 1.17 | 0.687 | 0.621 | 0.541 |
| PIP5K1B (phosphatidylinositol-4-phosphate 5-kinase type 1 beta) | 0.234 | 1.95 | 0.39 | 0.0701 | 0.228 |
| MYO16 (myosin XVI) | -0.627 | 2.18 | -0.418 | -0.683 | -0.565 |
| CLK3 (CDC like kinase 3) | 0.318 | 2.5 | 0.338 | 0.412 | 0.0849 |
| ERO1B (endoplasmic reticulum oxidoreductase 1 beta) | 0.674 | 1.28 | 0.653 | 0.634 | 0.468 |
| CSNK1A1 (casein kinase 1 alpha 1) | 0.258 | 2.67 | 0.141 | 0.16 | 0.33 |
| B3GNT2 | -0.455 | 2.34 | -0.253 | -0.564 | -0.568 |
| NKX2-3 (NK2 homeobox 3) | -0.0475 | 1.94 | 0.186 | 0.344 | -0.16 |
| SPOCK3 | -0.792 | 2.63 | -0.744 | -0.59 | -0.571 |
| H2AZ1 (H2A.Z variant histone 1) | 0.558 | 1.7 | 0.543 | 0.443 | 0.709 |
| PLCG2 (phospholipase C gamma 2) | -0.483 | 1.87 | -0.544 | -0.0907 | -0.177 |
| CCNO (cyclin O) | 0.0694 | 1.74 | 0.197 | -0.16 | 0.0889 |

Not a retest: entries from further up.
| target | mean correlation with KSR1 profile | mean distance from KSR1 profile | KSR1 correlation, replicate 1 | KSR1 correlation, replicate 2 | KSR1 correlation, replicate 3 |
| --- | --- | --- | --- | --- | --- |
| ZNF627 (zinc finger protein 627) | -0.0982 | 2.82 | 0.0513 | -0.0124 | -0.0413 |
| NOS1AP (nitric oxide synthase 1 adaptor protein) | -0.233 | 2.8 | -0.186 | -0.0454 | -0.491 |
| LAMP1 (lysosome associated membrane protein 1) | -0.725 | 2.92 | -0.814 | -0.756 | -0.593 |
| TLCD3B (TLC domain containing 3B) | 0.694 | 1.17 | 0.687 | 0.621 | 0.541 |
| PIP5K1B (phosphatidylinositol-4-phosphate 5-kinase type 1 beta) | 0.234 | 1.95 | 0.39 | 0.0701 | 0.228 |
| MYO16 (myosin XVI) | -0.627 | 2.18 | -0.418 | -0.683 | -0.565 |
| CLK3 (CDC like kinase 3) | 0.318 | 2.5 | 0.338 | 0.412 | 0.0849 |

More records:
| target | mean correlation with KSR1 profile | mean distance from KSR1 profile | KSR1 correlation, replicate 1 | KSR1 correlation, replicate 2 | KSR1 correlation, replicate 3 |
| --- | --- | --- | --- | --- | --- |
| ZNF638 (zinc finger protein 638) | -0.171 | 1.04 | -0.575 | -0.45 | -0.433 |
| PROK2 (prokineticin 2) | 0.688 | 1.82 | 0.576 | 0.59 | 0.663 |
| ADARB1 (adenosine deaminase RNA specific B1) | -0.371 | 2.52 | -0.366 | -0.395 | -0.491 |
| SS18L1 (SS18L1 subunit of BAF chromatin remodeling complex) | -0.187 | 2.26 | -0.257 | -0.182 | 0.0464 |
| ARHGEF2 (Rho/Rac guanine nucleotide exchange factor 2) | -0.342 | 1.85 | -0.237 | 0.0904 | -0.531 |
| SAC3D1 (SAC3 domain containing 1) | -0.0998 | 1.72 | -0.59 | -0.299 | -0.289 |
| UBFD1 (ubiquitin family domain containing 1) | -0.111 | 1.94 | 0.0144 | -0.246 | -0.163 |
| SPAG1 (sperm associated antigen 1) | 0.457 | 1.08 | 0.00458 | 0.528 | 0.734 |
| CIB2 (calcium and integrin binding family member 2) | -0.257 | 2.24 | 0.179 | -0.353 | -0.341 |
| NCAN (neurocan) | -0.116 | 3.21 | -0.043 | -0.291 | -0.149 |
| ADAMTS19 (ADAM metallopeptidase with thrombospondin type 1 motif 19) | -0.267 | 2.18 | -0.199 | -0.692 | -0.0397 |
| GC (GC vitamin D binding protein) | 0.472 | 1.48 | 0.636 | 0.238 | 0.409 |
| TRH (thyrotropin releasing hormone) | 0.0709 | 1.34 | 0.282 | -0.0735 | -0.0914 |
| SP140 (SP140 nuclear body protein) | -0.482 | 3.08 | -0.447 | -0.143 | -0.461 |
| DHTKD1 (dehydrogenase E1 and transketolase domain containing 1) | -0.653 | 2.5 | -0.402 | -0.659 | -0.641 |
| RRP1B (ribosomal RNA processing 1B) | -0.0631 | 1.13 | -0.0828 | -0.0073 | -0.126 |
| IRX1 (iroquois homeobox 1) | 0.78 | 1.53 | 0.836 | 0.79 | 0.667 |
| SLCO3A1 | 0.448 | 1.24 | 0.541 | 0.155 | 0.0568 |
| HPS3 (HPS3 biogenesis of lysosomal organelles complex 2 subunit 1) | -0.303 | 4.45 | -0.28 | -0.432 | -0.312 |
| NME3 (NME/NM23 nucleoside diphosphate kinase 3) | 0.763 | 1.91 | 0.803 | 0.685 | 0.831 |
| SAP130 (Sin3A associated protein 130) | -0.223 | 2.06 | 0.127 | -0.443 | -0.215 |
